The whole screen tested about 330,000 compounds, of which about 7,700 (2.3%) were called active. This list was built around the results that the source calls inconclusive (neither active nor inactive); the mix of calls is not that of the screen. Calls follow the shape of the dose curve; as a rule, active = well fitted inhibition curve with a large enough effect; inconclusive = small, poorly fitted or top-dose-only effect, or effect the other way; inactive = flat fitted curve, though single readings scatter. A potency beside an inconclusive call is a rough fit, not a confirmed value.
experiment: qHTS screen for small molecules that inhibit ELG1-dependent DNA repair in human embryonic kidney (HEK293T) cells expressing luciferase-tagged ELG1; details: HEK293T ELG1-luciferase reporter, luminescence, 16 h, DNA damage induced by 5-fluorouridine; series mostly up to 46.1 µM; also: nearly all actives have a fitted effect of over 55% in size
Summary of the method: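 5-Fluorouridine DNA damage + compound/DMSO, 2,000 cells/well, 16 h, 37 °C/5% CO2. ONE-Glo, 30 min RT, luminescence. Readout = decrease in reporter signal.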
Potency is read from the fitted curve at half-maximal effect.

Row | SMILES | Potency
1 | O=c1[nH]c(SCc2ccccc2)nnc1-c1ccccc1 | inconclusive: 18.4 µM [activator, single point]
2 | Clc1ccc(CN2CCCCCCC2)cc1 | inactive
3 | Cc1cc(C)cc(OCc2nnc(SCC(=O)c3ccc(Br)cc3)o2)c1 | inconclusive: 32.6 µM [inhibitor, single point]
4 | Cc1ccc(C)c(S(=O)(=O)N2CCN(C(=O)CSC(=S)N3CCCC3)CC2)c1 | inconclusive: 8.2 µM [inhibitor, single point]
5 | O=C(COc1ccc(Cl)cc1)NNC(=O)c1ccc2c(=O)n3c(nc2c1)CCC3 | inactive
6 | CCOc1ccc(-c2nc(N)ncc2Oc2cccc(OC)c2)c(O)c1 | inconclusive: 29.1 µM [inhibitor, single point]
7 | O=C(Nc1ccccc1Cl)C1Cc2ccccc2O/C1=N\O (centres undefined) | inconclusive: 18.3 µM [activator, partial curve]
8 | Cc1c(C(=O)OCC(=O)N2CC(C)OC(C)C2)oc2ccc(Br)cc12 (centres undefined) | inconclusive: 29.1 µM [inhibitor, single point]
9 | COCCCNC(=O)C(=O)Nc1cc2c3c(c1)CCC(=O)N3CCC2 | inconclusive: 29.1 µM [activator, single point]
10 | O=C(C1CC1)N1CCC(c2nc(-c3ccc(S(=O)(=O)NCC4CCCO4)cc3)no2)CC1 (centres undefined) | inactive
11 | Cc1cccc(N2CC(C(=O)NC3CCCCCC3)CC2=O)c1C (centres undefined) | inconclusive: 29.1 µM [activator, single point]
12 | CCOCCCNC(=O)c1oc2ccc(S(=O)(=O)N3CCOCC3)cc2c1C | inconclusive: 32.6 µM [inhibitor, partial curve, poor fit]
13 | CCOCCCn1c(=S)[nH]c2cc(C(=O)NCCCN(CC)CC)ccc2c1=O | inconclusive: 25.9 µM [activator, single point]
14 | COc1cc(Cl)ccc1OCc1cc(C(=O)N(C)CC2CCCCO2)no1 (centres undefined) | inconclusive: 20.6 µM [activator, partial curve]
15 | COc1cc(C(=O)Nc2ccc(NC(=O)c3cccc(Cl)c3)nc2)cc(OC)c1OC | inconclusive: 29.1 µM [inhibitor, single point]
16 | COc1ccc(CSc2nc(N3CCOCC3)c3c(c2C#N)CC(C)(C)OC3)cc1 | active: 0.92 µM
17 | COc1ccc(Cl)cc1NC(=O)CCCN1C(=O)CCC1=O | inactive
18 | COc1cccc(CN(C)C(=O)[C@@H](NC(=O)c2ccc(C)cc2)C(C)C)c1 | inactive
19 | CCOC(=O)C1CCCN(C(=O)c2cc(S(=O)(=O)Nc3ccccc3OC)ccc2C)C1 (centres undefined) | inactive
20 | COc1cc(SC)ccc1C(=O)NCCc1ccccc1 | inconclusive: 16.4 µM [activator, partial curve]
21 | OCCC1CN(Cc2cc(F)ccc2-n2cccn2)CCN1C1CCCC1 (centres undefined) | inactive
22 | COc1cc(N=c2ssnc2Cl)cc(OC)c1OC | inactive
23 | COc1cc2[nH]c(=O)n(CCC(=O)N3CCN(c4cccc(C)c4C)CC3)c(=O)c2cc1OC | inconclusive: 10.3 µM [inhibitor, partial curve, poor fit]

Row | SMILES | Potency
24 | CC1CCc2nn(CC(=O)N3CCCCCC3)cc2C1 (centres undefined) | inconclusive: 29.1 µM [activator, single point]
25 | CSc1ccc(CN2C(=O)NC3(CCCCCCC3)C2=O)cc1 | inconclusive: 20.6 µM [inhibitor, single point]
26 | CC(C)Oc1cccc(C(=O)C2CCCN(Cc3ccc4nonc4c3)C2)c1 (centres undefined) | inactive
27 | S=C(NCC1CCCO1)n1nnc2ccccc21 (centres undefined) | inconclusive: 32.6 µM [activator, partial curve, poor fit]
28 | CCCn1c(N)c(N(CCOC)C(=O)/C=C/c2cccc(Cl)c2)c(=O)[nH]c1=O | inactive
29 | Cc1oc(-c2ccccc2)cc1C(=O)NCc1ccncc1 | inconclusive: 29.1 µM [inhibitor, single point]
30 | O=[N+]([O-])c1ccc(N=Nc2c(Cl)cc(O)cc2Cl)cc1 | inconclusive: 20.6 µM [activator, single point]
31 | CSc1cccc(NC(=S)N2CCCN(Cc3cccc(Cl)c3)C2)c1 | inconclusive: 29.1 µM [inhibitor, single point]
32 | COc1ccc(-c2[nH]ncc2CN(C)CCN2CCOCC2)cc1F | inactive
33 | Cc1nc([N+](=O)[O-])c(Sc2nc3ccccc3[nH]2)n1Cc1ccccc1 | inconclusive: 18.4 µM [inhibitor, partial curve]
34 | CC1=NN(C(N)=S)C(=O)C1N=Nc1cccc2ccccc12 (centres undefined) | inconclusive: 18.3 µM [activator, partial curve]
35 | COc1ccc(C2NC(c3ccc(OC)cc3)C(c3ccccc3)C(=O)C2c2ccccc2)cc1 (centres undefined) | inactive
36 | O=C(Nc1cc2c3c(c1)CC(=O)N3CCC2)C1CC1 | inconclusive: 4.11 µM [activator, single point]
37 | COc1ccc(C(CNC(=O)CN2C(=O)NC3(CCCC3)C2=O)N(C)C)cc1 (centres undefined) | inconclusive: 29.1 µM [activator, partial curve, poor fit]
38 | Cc1nn(Cc2ccc(C(=O)NN)cc2)c(C)c1Cl | inconclusive: 14.6 µM [inhibitor, partial curve, poor fit]
39 | Cc1ccc(OCC(=O)N2CCCc3ccccc32)cc1 | inconclusive: 18.4 µM [activator, partial curve]
40 | C/C(=N\Nc1ncc(Cl)cc1Cl)c1ccc(C#N)cc1 | inactive
41 | Fc1ccc(C2=Nn3c(nnc3-c3n[nH]c4c3CCC4)SC2)cc1 | inconclusive: 16.4 µM [activator, partial curve]
42 | CC(C)(C)NC(=O)COC(=O)c1ccccc1Nc1ccc(SC(F)F)cc1 | inconclusive: 18.4 µM [activator, partial curve]
43 | CCOC(=O)CN(C(=O)CNC(=O)c1cccs1)C(C(=O)NC1CCCCC1)c1cccs1 (centres undefined) | inconclusive: 25.9 µM [inhibitor, partial curve, poor fit]
44 | Cn1nc(-c2ccccc2F)c2cc(C(=O)Nc3ccc4c(c3)OCCO4)sc21 | inconclusive: 16.4 µM [inhibitor, partial curve]
45 | Cc1ccc(S(=O)(=O)N2C/C=C\CN(S(=O)(=O)c3ccccc3Br)CC2)cc1 | inconclusive: 18.3 µM [inhibitor, single point]
46 | Cc1ccc(-n2ncc3c(NCc4ccccc4)ncnc32)cc1 | inconclusive: 8.2 µM [activator, partial curve]

Row | SMILES | Potency
47 | CC(=O)CCC1C2C(O)C(C(C)C)C(OC(=O)/C=C/c3ccccc3)CC12C (centres undefined) | inconclusive: 16.4 µM [inhibitor, partial curve]
48 | O=C(NCCSc1ccccc1)c1cccnc1 | inconclusive: 13 µM [activator, partial curve]
49 | O=C(/C=C/c1ccco1)NC(=S)NNC(=O)c1ccco1 | inactive
50 | COc1ccc(C(=O)CC(=O)c2ccccc2O)cc1OC | inconclusive: 13 µM [activator, partial curve]
51 | CCCOc1ccc(CNC(=S)Nc2ccccc2)cc1Cl | inactive
52 | Cc1cccc(NC(=O)CSCC(=O)N(C)Cc2c(F)cccc2Cl)c1 | inactive
53 | COC(=O)c1ccc2nc(-c3ccc(S(C)(=O)=O)cc3)cn2c1 | inconclusive: 18.3 µM [activator, partial curve]
54 | Cc1cccc(-n2c(C)cc(/C=C3/C(=N)N4C(c5ccccc5)=CSC4=NC3=O)c2C)c1 | inactive
55 | CC(=O)NNC(=O)c1[nH]c2ccc(Cl)cc2c1-c1ccccc1 | inactive
56 | CCOC(=O)c1c(-c2ccc(C)cc2)csc1NC(=O)CCN1CC(C)OC(C)C1 (centres undefined) | inconclusive: 29.1 µM [inhibitor, single point]
57 | O=C(c1cccc(S(=O)(=O)N2CCCCCC2)c1)N1CCN(c2ccccc2)CC1 | inconclusive: 29.1 µM [inhibitor, partial curve, poor fit]
58 | NS(=O)(=O)c1ccc(N/N=C/c2ccc[nH]2)c([N+](=O)[O-])c1 | inconclusive: 18.3 µM [inhibitor, partial curve, poor fit]
59 | Cc1ccc(NC(=O)COC(=O)CCc2ccccc2)c(Cl)c1 | inconclusive: 11.6 µM [activator, partial curve]
60 | O=C(COC(=O)c1ccc(O)cc1O)NNC(=O)c1cccs1 | inconclusive: 14.6 µM [activator, partial curve, poor fit]
61 | C=CCn1c2ccccc2c2nnc(SCC(=O)NC(C(=O)OC)C(C)C)nc21 (centres undefined) | inconclusive: 29.1 µM [inhibitor, single point]
62 | CCN(CC)S(=O)(=O)c1cc(C)ccc1NC(=S)Nc1cccnc1 | inconclusive: 18.3 µM [inhibitor, partial curve]
63 | CCc1cccc(N(C(=O)c2csnn2)C(C(=O)NC2CCCCC2)c2cccnc2)c1 (centres undefined) | inactive
64 | CCn1c(SCC(=O)Nc2cccc(C)c2)nc2nc3c(cc2c1=O)COC(C)(C)C3 | active: 18.3 µM
65 | c1ccc(-c2noc(C34CC5CC(CC(C5)C3)C4)n2)cc1 | inconclusive: 20.6 µM [activator, single point]
66 | Cc1cc(C)cc(C(=O)Nc2cc3c4c(c2)CC(=O)N4CCC3)c1 | inconclusive: 23.1 µM [activator, single point]
67 | COc1ccc(OC)c(COC(=O)c2cc([N+](=O)[O-])ccc2N2CCOCC2)c1 | inconclusive: 7.3 µM [inhibitor, partial curve, poor fit]
68 | COc1ccc(C(=O)Nn2c(SCC(=O)c3ccccc3)nc3ccccc3c2=O)cc1 | inconclusive: 0.651 µM [activator, full curve]
69 | O=C(c1ccco1)n1nc(-c2ccccc2)nc1SCc1ccccc1 | inconclusive: 2.91 µM [activator, full curve]

Among those listed so far, these contain a cyano group:
Row | SMILES | Potency
16 | COc1ccc(CSc2nc(N3CCOCC3)c3c(c2C#N)CC(C)(C)OC3)cc1 | active: 0.92 µM
40 | C/C(=N\Nc1ncc(Cl)cc1Cl)c1ccc(C#N)cc1 | inactive

2 entries from above, field by field.
O=C(NCCSc1ccccc1)c1cccnc1
  Potency: inconclusive: 13 µM [activator, partial curve]
COc1ccc(C(=O)Nn2c(SCC(=O)c3ccccc3)nc3ccccc3c2=O)cc1
  Potency: inconclusive: 0.651 µM [activator, full curve]
